Assay results taken from doi:10.1101/715409 (bioRxiv, 2019).
Results are given in words; binding and its absence hold for the method and conditions named. In cells and extracts the contact can be indirect. Some binding calls cover weakened binding; strength is not graded here. For some assays here: Where a sequence is shown, tags or fusion partners need not be part of it.

Protein sequences, listed by entry. Tags and fused reporters are not part of them.
UniProt P41832: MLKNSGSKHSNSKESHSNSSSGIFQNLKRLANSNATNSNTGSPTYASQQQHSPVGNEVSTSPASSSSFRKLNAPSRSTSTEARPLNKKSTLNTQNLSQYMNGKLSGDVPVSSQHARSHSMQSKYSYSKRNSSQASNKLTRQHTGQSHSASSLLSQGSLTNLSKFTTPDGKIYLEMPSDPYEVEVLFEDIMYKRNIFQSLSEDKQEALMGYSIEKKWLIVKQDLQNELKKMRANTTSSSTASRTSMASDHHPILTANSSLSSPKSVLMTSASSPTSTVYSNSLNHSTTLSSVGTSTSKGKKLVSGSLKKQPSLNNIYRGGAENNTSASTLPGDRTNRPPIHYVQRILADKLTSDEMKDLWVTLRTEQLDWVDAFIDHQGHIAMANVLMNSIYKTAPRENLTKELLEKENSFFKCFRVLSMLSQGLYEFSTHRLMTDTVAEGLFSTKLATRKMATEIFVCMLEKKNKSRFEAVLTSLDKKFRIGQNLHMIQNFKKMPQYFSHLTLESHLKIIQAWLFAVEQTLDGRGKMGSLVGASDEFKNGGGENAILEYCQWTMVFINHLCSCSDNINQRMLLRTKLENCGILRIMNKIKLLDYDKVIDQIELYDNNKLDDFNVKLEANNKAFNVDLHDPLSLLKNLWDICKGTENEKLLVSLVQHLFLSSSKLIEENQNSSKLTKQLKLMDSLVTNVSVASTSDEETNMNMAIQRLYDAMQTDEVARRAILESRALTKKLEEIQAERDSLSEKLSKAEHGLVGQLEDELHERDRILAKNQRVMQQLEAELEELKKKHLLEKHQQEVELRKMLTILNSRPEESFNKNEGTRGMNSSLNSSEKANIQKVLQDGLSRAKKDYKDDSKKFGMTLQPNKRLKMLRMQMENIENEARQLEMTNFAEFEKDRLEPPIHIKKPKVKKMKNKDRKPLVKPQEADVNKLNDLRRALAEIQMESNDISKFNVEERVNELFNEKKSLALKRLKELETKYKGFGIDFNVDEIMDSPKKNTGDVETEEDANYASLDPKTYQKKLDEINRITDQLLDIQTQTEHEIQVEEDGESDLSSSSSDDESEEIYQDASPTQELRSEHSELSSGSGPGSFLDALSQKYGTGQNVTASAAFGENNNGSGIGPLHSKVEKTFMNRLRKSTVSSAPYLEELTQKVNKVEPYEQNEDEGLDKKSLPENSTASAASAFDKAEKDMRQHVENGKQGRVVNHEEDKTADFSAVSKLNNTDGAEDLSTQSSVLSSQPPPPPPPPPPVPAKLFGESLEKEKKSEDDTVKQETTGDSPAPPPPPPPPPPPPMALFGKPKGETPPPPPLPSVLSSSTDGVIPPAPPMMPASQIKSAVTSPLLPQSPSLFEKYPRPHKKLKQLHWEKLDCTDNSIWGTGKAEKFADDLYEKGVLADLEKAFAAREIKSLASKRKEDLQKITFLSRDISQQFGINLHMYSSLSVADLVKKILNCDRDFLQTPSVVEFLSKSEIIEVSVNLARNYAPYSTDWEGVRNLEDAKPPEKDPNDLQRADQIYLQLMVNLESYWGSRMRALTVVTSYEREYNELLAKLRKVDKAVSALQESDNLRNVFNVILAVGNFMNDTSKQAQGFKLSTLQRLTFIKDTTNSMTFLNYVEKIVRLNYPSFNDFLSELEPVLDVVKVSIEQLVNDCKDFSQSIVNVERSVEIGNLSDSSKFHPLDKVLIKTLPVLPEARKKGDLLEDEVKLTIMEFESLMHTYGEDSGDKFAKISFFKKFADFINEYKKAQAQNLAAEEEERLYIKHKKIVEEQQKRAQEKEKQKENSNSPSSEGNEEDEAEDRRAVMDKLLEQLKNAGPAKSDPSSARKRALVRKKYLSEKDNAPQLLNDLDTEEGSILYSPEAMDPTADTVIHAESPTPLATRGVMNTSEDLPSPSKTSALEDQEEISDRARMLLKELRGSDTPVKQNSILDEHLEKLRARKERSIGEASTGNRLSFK
UniProt P30619: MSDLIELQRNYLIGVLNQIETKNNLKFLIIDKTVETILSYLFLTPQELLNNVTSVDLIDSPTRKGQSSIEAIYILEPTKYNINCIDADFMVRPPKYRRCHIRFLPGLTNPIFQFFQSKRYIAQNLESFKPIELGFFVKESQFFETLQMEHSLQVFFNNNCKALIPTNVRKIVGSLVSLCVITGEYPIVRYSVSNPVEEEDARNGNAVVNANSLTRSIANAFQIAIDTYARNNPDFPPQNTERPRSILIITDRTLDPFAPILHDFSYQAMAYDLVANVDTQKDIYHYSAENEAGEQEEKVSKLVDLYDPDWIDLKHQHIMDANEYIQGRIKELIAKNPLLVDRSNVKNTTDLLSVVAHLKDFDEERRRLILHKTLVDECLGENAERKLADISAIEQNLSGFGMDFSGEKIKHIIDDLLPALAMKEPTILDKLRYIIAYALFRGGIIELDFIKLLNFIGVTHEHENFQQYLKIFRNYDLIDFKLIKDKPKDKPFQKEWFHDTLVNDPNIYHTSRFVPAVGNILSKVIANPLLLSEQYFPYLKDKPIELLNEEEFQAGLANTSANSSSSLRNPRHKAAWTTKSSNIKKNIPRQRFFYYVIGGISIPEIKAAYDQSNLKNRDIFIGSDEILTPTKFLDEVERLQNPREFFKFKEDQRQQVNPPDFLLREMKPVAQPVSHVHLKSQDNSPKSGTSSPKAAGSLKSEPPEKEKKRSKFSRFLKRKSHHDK

T1: Boi1_(Δ86-178)CRU (Saccharomyces cerevisiae) (UniProt P38041)
T1 sequence: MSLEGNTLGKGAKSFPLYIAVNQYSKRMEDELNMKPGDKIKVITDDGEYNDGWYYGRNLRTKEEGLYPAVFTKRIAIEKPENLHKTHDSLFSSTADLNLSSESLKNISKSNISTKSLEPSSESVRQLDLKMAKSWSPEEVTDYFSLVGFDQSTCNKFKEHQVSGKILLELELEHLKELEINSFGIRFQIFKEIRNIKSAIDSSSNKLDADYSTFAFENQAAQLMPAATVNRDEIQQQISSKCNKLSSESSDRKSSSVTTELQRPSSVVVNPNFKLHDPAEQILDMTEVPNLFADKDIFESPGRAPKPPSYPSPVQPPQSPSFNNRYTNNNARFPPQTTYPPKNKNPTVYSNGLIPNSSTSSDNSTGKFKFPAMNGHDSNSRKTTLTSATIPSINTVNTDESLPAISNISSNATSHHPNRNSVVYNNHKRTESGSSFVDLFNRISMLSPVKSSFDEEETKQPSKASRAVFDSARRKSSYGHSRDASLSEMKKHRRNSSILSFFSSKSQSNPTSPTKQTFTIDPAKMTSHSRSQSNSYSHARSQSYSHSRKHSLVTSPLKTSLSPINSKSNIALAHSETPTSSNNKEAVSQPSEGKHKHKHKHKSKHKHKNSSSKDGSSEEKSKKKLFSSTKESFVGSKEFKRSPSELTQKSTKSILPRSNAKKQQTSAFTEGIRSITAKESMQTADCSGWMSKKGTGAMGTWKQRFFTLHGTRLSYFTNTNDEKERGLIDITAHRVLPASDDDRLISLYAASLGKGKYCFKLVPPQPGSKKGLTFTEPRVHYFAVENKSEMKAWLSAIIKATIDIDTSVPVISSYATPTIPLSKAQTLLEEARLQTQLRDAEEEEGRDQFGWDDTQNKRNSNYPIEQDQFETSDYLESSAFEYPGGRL

T2: Boi1CRU (Saccharomyces cerevisiae) (UniProt P38041)
T2 sequence: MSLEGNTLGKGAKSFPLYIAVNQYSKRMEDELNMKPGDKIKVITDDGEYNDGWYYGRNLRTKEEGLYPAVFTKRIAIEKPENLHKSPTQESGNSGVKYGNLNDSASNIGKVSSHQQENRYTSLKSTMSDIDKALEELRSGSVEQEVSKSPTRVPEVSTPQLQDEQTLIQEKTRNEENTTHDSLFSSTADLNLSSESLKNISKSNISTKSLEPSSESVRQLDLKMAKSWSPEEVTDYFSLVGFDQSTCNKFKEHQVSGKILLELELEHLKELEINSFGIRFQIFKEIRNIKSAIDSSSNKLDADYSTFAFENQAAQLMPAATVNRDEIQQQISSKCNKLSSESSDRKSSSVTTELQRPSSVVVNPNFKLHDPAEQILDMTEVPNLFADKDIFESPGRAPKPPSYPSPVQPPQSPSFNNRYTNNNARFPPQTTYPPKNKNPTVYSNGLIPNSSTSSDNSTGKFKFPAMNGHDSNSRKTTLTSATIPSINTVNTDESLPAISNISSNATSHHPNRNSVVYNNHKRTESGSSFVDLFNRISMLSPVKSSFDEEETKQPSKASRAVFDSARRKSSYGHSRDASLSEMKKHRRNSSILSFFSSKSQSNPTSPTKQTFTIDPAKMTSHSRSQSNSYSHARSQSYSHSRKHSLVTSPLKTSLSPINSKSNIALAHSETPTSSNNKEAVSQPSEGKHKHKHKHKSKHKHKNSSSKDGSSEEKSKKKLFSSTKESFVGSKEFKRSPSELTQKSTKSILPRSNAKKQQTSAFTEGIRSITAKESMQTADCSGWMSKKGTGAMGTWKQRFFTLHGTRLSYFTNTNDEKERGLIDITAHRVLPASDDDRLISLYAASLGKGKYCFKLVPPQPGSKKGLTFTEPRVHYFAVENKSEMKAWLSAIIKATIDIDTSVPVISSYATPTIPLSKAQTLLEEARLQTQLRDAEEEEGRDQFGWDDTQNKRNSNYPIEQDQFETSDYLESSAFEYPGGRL

T3: Bud6CRU (Saccharomyces cerevisiae) (UniProt P41697)
T3 sequence: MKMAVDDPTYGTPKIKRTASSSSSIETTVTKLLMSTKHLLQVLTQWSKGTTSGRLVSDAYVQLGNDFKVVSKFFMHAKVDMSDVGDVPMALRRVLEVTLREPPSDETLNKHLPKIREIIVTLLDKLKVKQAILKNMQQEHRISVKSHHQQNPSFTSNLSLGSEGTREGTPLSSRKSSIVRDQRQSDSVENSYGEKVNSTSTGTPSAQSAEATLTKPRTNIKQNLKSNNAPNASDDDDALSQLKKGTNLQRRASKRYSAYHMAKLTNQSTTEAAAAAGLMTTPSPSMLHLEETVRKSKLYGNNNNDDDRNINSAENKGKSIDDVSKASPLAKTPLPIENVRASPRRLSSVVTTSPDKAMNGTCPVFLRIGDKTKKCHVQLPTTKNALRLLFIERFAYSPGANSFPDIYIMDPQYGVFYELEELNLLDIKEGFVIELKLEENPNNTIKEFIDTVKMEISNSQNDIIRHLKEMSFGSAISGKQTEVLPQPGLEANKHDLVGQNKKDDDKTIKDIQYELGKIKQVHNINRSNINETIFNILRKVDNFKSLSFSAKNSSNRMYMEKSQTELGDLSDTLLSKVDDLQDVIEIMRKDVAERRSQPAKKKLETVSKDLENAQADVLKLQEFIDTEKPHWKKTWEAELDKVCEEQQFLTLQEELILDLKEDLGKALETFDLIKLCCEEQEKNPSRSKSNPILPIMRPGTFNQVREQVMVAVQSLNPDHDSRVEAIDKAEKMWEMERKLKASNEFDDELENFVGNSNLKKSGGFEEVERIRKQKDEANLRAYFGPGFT


Legend:
Experiment in all cases: split reporter
[1] = target: T1, Boi1_(Δ86-178)CRU (Saccharomyces cerevisiae)
[2] = target: T2, Boi1CRU (Saccharomyces cerevisiae)
[3] = target: T3, Bud6CRU (Saccharomyces cerevisiae)
[4] = target: Bni1CRU (Saccharomyces cerevisiae) (UniProt P41832)

binding [3] | binding [4] | Molecule | binding [1] | binding [2]
binds | binds | Nub fusion to the N-terminal 300 residues of Boi2 (domain or fragment, UniProt P39969 1-300) MSNDREVPTLSQLNTTVSRDKDVSDTLSPDFDSKGSATGRDGGNFPMYIAINEYFKRMEDELDMKPGDKIKVITDDEEYKDGWYFGRNLRTNEEGLYPVVFTQKITVEKAPTLMRAKSTKRIYSPLTNEDPLLSSTFISENDSNSELPTPQPIETAASISRTANGKIERNLSLKNTMSDIDNALLEFKDDSIGPPDRFINSGRDEEHSITHETILSATDGLDVVESNSKPTTSSSTGFLNGDLENQATLINGIDTTKLNPVEAEFWSPEEITAYFIMEGYDVQSASRFQKHKISGKILLE |  | 
binds |  | Nub fusion to the Boi1 linker region (residues 77-178) (domain or fragment, UniProt P38041 77-178) IEKPENLHKSPTQESGNSGVKYGNLNDSASNIGKVSSHQQENRYTSLKSTMSDIDKALEELRSGSVEQEVSKSPTRVPEVSTPQLQDEQTLIQEKTRNEENT |  | 
 | binds | Nub fusion of Boi1_(Δ86-178) (protein, UniProt P38041) MSLEGNTLGKGAKSFPLYIAVNQYSKRMEDELNMKPGDKIKVITDDGEYNDGWYYGRNLRTKEEGLYPAVFTKRIAIEKPENLHKTHDSLFSSTADLNLSSESLKNISKSNISTKSLEPSSESVRQLDLKMAKSWSPEEVTDYFSLVGFDQSTCNKFKEHQVSGKILLELELEHLKELEINSFGIRFQIFKEIRNIKSAIDSSSNKLDADYSTFAFENQAAQLMPAATVNRDEIQQQISSKCNKLSSESSDRKSSSVTTELQRPSSVVVNPNFKLHDPAEQILDMTEVPNLFADKDIFESPGRAPKPPSYPSPVQPPQSPSFNNRYTNNNARFPPQTTYPPKNKNPTVYSNGLIPNSSTSSDNSTGKFKFPAMNGHDSNSRKTTLTSATIPSINTVNTDESLPAISNISSNATSHHPNRNSVVYNNHKRTESGSSFVDLFNRISMLSPVKSSFDEEETKQPSKASRAVFDSARRKSSYGHSRDASLSEMKKHRRNSSILSFFSSKSQSNPTSPTKQTFTIDPAKMTSHSRSQSNSYSHARSQSYSHSRKHSLVTSPLKTSLSPINSKSNIALAHSETPTSSNNKEAVSQPSEGKHKHKHKHKSKHKHKNSSSKDGSSEEKSKKKLFSSTKESFVGSKEFKRSPSELTQKSTKSILPRSNAKKQQTSAFTEGIRSITAKESMQTADCSGWMSKKGTGAMGTWKQRFFTLHGTRLSYFTNTNDEKERGLIDITAHRVLPASDDDRLISLYAASLGKGKYCFKLVPPQPGSKKGLTFTEPRVHYFAVENKSEMKAWLSAIIKATIDIDTSVPVISSYATPTIPLSKAQTLLEEARLQTQLRDAEEEEGRDQFGWDDTQNKRNSNYPIEQDQFETSDYLESSAFEYPGGRL |  | 
binds | binds | Nub fusion to the N-terminal 300 residues of Boi1 (domain or fragment, UniProt P38041 1-300) MSLEGNTLGKGAKSFPLYIAVNQYSKRMEDELNMKPGDKIKVITDDGEYNDGWYYGRNLRTKEEGLYPAVFTKRIAIEKPENLHKSPTQESGNSGVKYGNLNDSASNIGKVSSHQQENRYTSLKSTMSDIDKALEELRSGSVEQEVSKSPTRVPEVSTPQLQDEQTLIQEKTRNEENTTHDSLFSSTADLNLSSESLKNISKSNISTKSLEPSSESVRQLDLKMAKSWSPEEVTDYFSLVGFDQSTCNKFKEHQVSGKILLELELEHLKELEINSFGIRFQIFKEIRNIKSAIDSSSNKL |  | 

Continued, molecule first:

Molecule | binding [3] | binding [4] | binding [1] | binding [2]
Nub fusion of Sec1 (from UniProt P30619 1-724) |  |  | binds | binds
Nub fusion to the N-terminal 141 residues of Bud6 (domain or fragment, UniProt P41697 1-141) MKMAVDDPTYGTPKIKRTASSSSSIETTVTKLLMSTKHLLQVLTQWSKGTTSGRLVSDAYVQLGNDFKVVSKFFMHAKVDMSDVGDVPMALRRVLEVTLREPPSDETLNKHLPKIREIIVTLLDKLKVKQAILKNMQQEHR |  |  |  | binds
Nub-Boi2 (protein, UniProt P39969 1-1040) MSNDREVPTLSQLNTTVSRDKDVSDTLSPDFDSKGSATGRDGGNFPMYIAINEYFKRMEDELDMKPGDKIKVITDDEEYKDGWYFGRNLRTNEEGLYPVVFTQKITVEKAPTLMRAKSTKRIYSPLTNEDPLLSSTFISENDSNSELPTPQPIETAASISRTANGKIERNLSLKNTMSDIDNALLEFKDDSIGPPDRFINSGRDEEHSITHETILSATDGLDVVESNSKPTTSSSTGFLNGDLENQATLINGIDTTKLNPVEAEFWSPEEITAYFIMEGYDVQSASRFQKHKISGKILLELELVHLKELDINSFGTRFEIFKEIEKIKEAIRTNGRSLNRASKTNNANIYNQLMPPANVDQRASYRGHVRKTSQSLEDLPSQQNFIPTPRNTRNSSASKHRPKSLVFDSQEANANIAPDVQIPQVVEEMAGNENLFVSPRRAPKPPSYPSPAQPPKSPLLNNTRTSPSPAQLYSWQSPTLSFSGPKRTSYIDQYSSSDSNFNSRSALPKNNQGGGKALSPIPSPTRNSVRNEDSEGKLTSSSKRNSVPYYGYAPESSSDRKSSCSSHEEEQFQETMNTFERPTSSIYADGSTIASISNDKLAHEKEGKKKPTRHSSSLSSKSKSDSRRNSSLKRSSSASRTSSFKKSSFMLSPFRQQFTDNAARSSSPEENPITSMPSEKNSSPIVDKKSSKKSRSKRRSVSAKEAEIFTETVKDDKNKRSASEAIKGETLKGKSLRQMTARPVAKKKQTSAFIEGLRSISVKEAMKDADFSGWMSKKGSGAMSTWKTRFFTLHGTRLSYFSSTTDTRERGLIDITAHRVVPAKEDDKLVSLYAASTGKGRYCFKLLPPQPGSKKGLTFTQPRTHYFAVDNKEEMRGWMAALIKTTIDIDTSVPIISSYTTPTVSLSKAQEMLAEAREETKLREQQMLENEEDEDQFLWDQQQLQQQQHDNNQGQADRTISASTQRTSDEDNTISTPNLSSANNTTIGSNGFSSPFLLASGLLSPGVARNSSMRGTEKKGKFSTEEDYFGDNSKHKTDKI | binds | binds |  | 
